According to the supplement of paper PMC10849652:
The other results are listed elsewhere or left out.

Amino acid sequences for entries named in this document (tags omitted). A change or cut given only in a name is not applied to a line headed by its entry.
UniProt Q9UKY7: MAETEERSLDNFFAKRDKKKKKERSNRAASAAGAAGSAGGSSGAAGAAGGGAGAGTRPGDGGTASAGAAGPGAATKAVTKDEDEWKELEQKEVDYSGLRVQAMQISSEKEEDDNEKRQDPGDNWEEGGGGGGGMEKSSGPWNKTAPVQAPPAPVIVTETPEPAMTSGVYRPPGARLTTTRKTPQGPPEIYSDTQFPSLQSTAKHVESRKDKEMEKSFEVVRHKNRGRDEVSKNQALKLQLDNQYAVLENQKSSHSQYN
UniProt Q96SZ6: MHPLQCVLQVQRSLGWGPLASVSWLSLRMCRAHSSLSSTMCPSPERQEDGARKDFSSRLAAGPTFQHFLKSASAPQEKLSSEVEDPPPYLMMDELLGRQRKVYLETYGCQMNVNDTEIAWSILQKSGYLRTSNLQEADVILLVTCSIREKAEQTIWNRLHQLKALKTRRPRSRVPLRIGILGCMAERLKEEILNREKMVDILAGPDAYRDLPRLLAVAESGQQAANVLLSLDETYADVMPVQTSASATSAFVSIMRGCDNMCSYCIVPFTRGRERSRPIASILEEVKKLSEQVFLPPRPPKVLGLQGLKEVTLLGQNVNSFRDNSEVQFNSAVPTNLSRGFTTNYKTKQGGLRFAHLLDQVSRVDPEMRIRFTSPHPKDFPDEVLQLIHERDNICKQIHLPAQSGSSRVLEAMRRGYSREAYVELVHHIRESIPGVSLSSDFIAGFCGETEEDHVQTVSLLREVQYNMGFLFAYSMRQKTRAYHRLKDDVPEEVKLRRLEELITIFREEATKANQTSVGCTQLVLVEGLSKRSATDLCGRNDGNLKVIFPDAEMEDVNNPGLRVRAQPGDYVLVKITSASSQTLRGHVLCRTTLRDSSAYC
UniProt Q69YH5: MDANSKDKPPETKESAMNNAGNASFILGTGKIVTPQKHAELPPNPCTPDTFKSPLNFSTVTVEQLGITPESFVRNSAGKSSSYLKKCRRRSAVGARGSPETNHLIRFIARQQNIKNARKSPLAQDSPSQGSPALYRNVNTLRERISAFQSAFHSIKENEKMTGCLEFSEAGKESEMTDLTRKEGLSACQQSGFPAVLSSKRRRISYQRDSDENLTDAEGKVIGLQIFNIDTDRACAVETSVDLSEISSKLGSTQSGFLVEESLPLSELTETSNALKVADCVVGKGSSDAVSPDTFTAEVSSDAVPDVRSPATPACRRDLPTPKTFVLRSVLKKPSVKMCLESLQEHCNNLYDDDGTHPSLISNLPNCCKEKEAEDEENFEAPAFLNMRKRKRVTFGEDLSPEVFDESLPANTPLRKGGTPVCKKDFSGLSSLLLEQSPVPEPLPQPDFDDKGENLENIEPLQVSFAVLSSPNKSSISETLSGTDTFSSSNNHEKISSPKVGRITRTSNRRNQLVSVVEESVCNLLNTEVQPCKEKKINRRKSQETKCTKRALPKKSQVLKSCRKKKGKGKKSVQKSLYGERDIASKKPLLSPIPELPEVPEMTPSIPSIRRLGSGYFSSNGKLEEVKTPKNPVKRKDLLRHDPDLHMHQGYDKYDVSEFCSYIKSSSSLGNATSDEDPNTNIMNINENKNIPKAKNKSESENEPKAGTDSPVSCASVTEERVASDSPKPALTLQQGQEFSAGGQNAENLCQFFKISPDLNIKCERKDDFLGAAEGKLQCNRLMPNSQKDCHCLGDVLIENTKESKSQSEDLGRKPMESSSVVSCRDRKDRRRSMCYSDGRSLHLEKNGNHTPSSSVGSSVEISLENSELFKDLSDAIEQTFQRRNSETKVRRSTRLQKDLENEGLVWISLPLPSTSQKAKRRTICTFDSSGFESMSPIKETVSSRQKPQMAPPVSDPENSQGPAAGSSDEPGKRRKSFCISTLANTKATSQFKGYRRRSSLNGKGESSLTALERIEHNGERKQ
UniProt P30307: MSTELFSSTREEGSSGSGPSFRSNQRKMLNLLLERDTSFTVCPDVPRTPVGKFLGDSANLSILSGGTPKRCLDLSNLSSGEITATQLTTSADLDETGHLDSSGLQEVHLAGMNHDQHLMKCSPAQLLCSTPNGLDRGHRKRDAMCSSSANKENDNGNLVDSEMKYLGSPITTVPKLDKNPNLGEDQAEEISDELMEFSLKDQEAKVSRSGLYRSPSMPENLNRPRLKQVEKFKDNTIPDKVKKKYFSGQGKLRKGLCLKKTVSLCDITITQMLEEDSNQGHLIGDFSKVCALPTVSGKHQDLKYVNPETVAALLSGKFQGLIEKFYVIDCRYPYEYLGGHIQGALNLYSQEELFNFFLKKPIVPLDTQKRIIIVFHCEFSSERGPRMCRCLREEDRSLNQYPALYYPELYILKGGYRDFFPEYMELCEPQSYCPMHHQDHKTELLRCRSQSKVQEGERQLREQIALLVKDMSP
UniProt O95319: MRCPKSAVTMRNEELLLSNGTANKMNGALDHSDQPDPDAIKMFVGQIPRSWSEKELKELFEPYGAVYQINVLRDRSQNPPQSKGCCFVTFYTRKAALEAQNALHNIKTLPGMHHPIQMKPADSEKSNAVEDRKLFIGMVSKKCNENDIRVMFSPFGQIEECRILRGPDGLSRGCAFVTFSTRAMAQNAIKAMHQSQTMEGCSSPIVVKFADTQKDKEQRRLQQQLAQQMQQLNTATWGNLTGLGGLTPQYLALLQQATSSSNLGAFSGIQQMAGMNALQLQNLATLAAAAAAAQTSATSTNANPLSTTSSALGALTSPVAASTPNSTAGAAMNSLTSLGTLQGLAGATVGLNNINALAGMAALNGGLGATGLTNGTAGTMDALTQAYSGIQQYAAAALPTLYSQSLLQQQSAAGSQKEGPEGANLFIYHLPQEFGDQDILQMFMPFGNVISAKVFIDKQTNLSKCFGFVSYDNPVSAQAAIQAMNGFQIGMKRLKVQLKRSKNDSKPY
UniProt Q9H3Q1: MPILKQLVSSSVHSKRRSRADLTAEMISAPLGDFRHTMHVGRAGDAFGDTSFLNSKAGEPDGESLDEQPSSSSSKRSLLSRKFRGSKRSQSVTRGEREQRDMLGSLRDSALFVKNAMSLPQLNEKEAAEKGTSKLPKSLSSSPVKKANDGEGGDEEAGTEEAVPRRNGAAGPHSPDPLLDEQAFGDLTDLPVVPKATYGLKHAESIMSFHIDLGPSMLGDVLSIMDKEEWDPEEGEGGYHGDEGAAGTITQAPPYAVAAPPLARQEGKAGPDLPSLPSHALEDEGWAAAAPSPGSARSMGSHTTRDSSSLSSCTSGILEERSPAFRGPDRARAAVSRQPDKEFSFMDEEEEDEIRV
UniProt A8MTT3: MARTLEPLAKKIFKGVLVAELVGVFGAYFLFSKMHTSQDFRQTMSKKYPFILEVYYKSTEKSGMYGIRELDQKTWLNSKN
UniProt P21127: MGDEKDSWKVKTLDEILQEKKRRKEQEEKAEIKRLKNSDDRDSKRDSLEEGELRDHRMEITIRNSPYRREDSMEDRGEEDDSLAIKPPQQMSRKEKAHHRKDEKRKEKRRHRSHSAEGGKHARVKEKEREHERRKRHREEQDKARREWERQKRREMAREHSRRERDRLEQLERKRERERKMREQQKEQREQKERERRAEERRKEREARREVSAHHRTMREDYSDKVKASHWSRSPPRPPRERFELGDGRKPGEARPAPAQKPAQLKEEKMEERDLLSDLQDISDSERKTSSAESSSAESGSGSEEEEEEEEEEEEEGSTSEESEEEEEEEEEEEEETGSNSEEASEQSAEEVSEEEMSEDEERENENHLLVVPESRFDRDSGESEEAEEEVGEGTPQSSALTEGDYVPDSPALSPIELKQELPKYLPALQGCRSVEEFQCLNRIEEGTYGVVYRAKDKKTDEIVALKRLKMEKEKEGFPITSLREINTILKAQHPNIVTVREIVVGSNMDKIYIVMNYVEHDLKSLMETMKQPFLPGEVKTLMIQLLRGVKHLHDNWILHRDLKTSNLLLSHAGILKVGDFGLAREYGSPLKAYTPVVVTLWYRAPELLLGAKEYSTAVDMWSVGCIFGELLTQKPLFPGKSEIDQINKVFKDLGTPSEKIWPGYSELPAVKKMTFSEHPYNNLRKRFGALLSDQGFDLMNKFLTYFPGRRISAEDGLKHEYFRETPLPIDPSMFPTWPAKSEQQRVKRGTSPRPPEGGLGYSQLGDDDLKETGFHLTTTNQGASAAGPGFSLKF
UniProt Q9C0F1: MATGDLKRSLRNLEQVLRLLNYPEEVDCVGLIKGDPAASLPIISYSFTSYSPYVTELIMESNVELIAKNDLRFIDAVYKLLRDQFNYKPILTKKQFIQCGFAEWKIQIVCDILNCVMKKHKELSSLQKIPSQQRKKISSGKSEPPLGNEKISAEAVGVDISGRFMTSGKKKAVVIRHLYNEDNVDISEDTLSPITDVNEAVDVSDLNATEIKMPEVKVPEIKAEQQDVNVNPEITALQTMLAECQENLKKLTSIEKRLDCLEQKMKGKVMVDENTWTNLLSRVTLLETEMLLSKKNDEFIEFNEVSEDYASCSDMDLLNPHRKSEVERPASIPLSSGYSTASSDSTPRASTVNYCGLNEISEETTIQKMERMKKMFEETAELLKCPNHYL
UniProt Q15517: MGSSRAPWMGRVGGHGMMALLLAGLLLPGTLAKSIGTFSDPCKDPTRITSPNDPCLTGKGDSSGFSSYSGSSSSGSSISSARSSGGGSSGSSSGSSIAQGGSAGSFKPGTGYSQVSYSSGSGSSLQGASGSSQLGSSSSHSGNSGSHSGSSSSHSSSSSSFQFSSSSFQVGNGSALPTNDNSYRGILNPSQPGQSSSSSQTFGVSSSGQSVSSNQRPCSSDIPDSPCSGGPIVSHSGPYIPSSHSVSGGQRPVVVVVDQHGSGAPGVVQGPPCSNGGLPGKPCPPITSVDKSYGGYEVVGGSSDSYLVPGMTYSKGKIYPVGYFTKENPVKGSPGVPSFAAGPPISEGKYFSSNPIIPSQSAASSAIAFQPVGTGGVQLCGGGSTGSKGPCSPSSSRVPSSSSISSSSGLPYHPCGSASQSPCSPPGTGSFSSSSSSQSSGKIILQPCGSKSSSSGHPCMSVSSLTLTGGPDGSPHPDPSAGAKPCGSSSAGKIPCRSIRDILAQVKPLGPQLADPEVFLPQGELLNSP
UniProt P50750, whole entry, looked up: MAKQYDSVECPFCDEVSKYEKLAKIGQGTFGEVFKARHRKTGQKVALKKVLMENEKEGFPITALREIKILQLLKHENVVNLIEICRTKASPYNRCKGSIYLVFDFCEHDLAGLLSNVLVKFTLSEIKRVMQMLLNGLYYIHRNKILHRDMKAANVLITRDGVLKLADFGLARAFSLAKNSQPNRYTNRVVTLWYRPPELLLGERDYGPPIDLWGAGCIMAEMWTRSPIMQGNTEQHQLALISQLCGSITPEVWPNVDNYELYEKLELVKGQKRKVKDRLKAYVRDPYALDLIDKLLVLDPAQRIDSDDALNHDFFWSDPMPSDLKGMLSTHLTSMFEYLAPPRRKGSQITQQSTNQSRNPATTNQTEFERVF
UniProt Q00534, whole entry, looked up: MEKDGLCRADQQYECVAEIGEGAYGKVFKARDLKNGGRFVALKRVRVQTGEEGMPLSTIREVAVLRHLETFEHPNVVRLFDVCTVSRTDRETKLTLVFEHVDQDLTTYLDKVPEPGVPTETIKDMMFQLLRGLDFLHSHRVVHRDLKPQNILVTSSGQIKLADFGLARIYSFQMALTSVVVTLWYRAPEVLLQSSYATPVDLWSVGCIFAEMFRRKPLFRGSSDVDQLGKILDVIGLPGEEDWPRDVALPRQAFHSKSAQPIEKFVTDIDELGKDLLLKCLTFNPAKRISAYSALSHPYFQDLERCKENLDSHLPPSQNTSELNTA
UniProt Q9UFW8: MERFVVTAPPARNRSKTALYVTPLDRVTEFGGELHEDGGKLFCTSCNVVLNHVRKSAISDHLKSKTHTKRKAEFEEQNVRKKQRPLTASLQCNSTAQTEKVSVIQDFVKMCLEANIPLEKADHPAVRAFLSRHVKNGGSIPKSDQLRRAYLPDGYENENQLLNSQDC

Legend:
Test in all cases: log2 fold change, soluble protein after heating vs DMSO (PISA); higher = thermal stabilisation; K562 lysate, 10 uM; active = over 0.2 and 3.5 SD of the protein, either way, in both replicates (recomputed)
[1] = compound: CN1CC[C@H](c2c(O)cc(O)c3c(=O)cc(-c4ccccc4Cl)oc23)[C@H](O)C1 [alvocidib]
In short: (§1)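 Thermal stability, expressed as log-two fold change relative to solvent controls, is given from duplicates. Crude K562 extract in PBS pH 7.4 with 1 mM MgCl2, at 1 mg/mL protein, was treated with 10 μM compound for 30 min and heated in aliquots for 3 min across 48°C-58°C. After pooling, adjustment to 0.5% NP-40 at 4°C and centrifugation at 21,000xg for 90 min, supernatant protein was measured by TMTpro 16plex LC-MS/MS with channel sums equalised.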

[2] = compound: CN1CCc2c(c3ccccc3n2Cc2ccc(C(=O)NO)cc2)C1 [Tubastatin A]
In short: as §1

[3] = compound: CNC(=O)C1=CC=CC=C1NC2=NC(=NC=C2Cl)NC3=C(C=C(C=C3)N4CCOCC4)OC
In short: as §1

[4] = compound: CNC(=O)c1ccc(Nc2ncc(C(F)(F)F)c(NCc3nccnc3N(C)S(C)(=O)=O)n2)cc1 [defactinib]
In short: as §1

[5] = compound: CNc1nc(-c2ccc3c(N)n[nH]c3c2)cc(N2C[C@@H](C(=O)NC3CCCCC3)CC[C@H]2C)n1
In short: as §1

[6] = compound: COC(=O)N[C@@H](C)CNc1nccc(-c2cn(C(C)C)nc2-c2cc(Cl)cc(NS(C)(=O)=O)c2F)n1 [encorafenib]
In short: as §1

[7] = compound: COC(=O)[C@H](CCSC)NC(=O)C1=C(C=C(C=C1)NC[C@H](CS)N)C2=CC=CC=C2
In short: as §1

[8] = compound: COc1cc(Nc2ncc3c(n2)-c2ccc(Cl)cc2C(c2c(F)cccc2OC)=NC3)ccc1C(=O)O [alisertib]
In short: as §1

[9] = compound: COc1cc2nc(-c3cc(F)ccc3O)nc(N[C@@H]3CNC[C@H]3C(C)(C)O)c2cc1OC
In short: as §1

[10] = compound: COc1cc2ncnc(Nc3ccc(F)c(Cl)c3)c2cc1OCCCN1CCOCC1 [gefitinib]
In short: as §1

[11] = compound: CS(=O)(=O)CCNCc1ccc(-c2ccc3ncnc(Nc4ccc(OCc5cccc(F)c5)c(Cl)c4)c3c2)o1 [lapatinib]
In short: as §1

[12] = compound: CS(=O)(=O)N1CCN(Cc2cc3nc(-c4cccc5[nH]ncc45)nc(N4CCOCC4)c3s2)CC1 [pictilisib]
In short: as §1

[13] = compound: C[C@@H](Oc1cc(-c2cnn(C3CCNCC3)c2)cnc1N)c1c(Cl)ccc(F)c1Cl [crizotinib]
In short: as §1

[14] = compound: C[C@H](C1=CC=C(C=C1)C(=O)NC2=C3C=CNC3=NC=C2)N
In short: as §1

[15] = compound: C[C@H](Nc1ncnc2nc[nH]c12)c1cc2cccc(Cl)c2c(=O)n1-c1ccccc1 [duvelisib]
In short: as §1

[16] = compound: Cc1cc(Nc2cc(CN3CCOCC3)c3nc(C)c(Cc4ccc(Cl)cc4F)n3n2)n[nH]1 [gandotinib]
In short: as §1

[17] = compound: Cc1cc(Nc2cc(N3CCN(C)CC3)nc(Sc3ccc(NC(=O)C4CC4)cc3)n2)n[nH]1 [tozasertib]
In short: as §1

[18] = compound: Cc1ccc(-n2nc(C(C)(C)C)cc2NC(=O)Nc2ccc(OCCN3CCOCC3)c3ccccc23)cc1 [doramapimod]
In short: as §1

[19] = compound: Cc1ccc(NC(=O)c2ccc(CN3CC[C@H](N(C)C)C3)c(C(F)(F)F)c2)cc1Nc1nccc(-c2cncnc2)n1 [bafetinib]
In short: as §1

[20] = compound: Cc1cccc(CC(=O)N2CCc3c2ccc(-c2cn(C)c4ncnc(N)c24)c3F)n1
In short: as §1

Target | log2 fold change [1] | log2 fold change [2] | log2 fold change [3] | log2 fold change [4] | log2 fold change [5] | log2 fold change [6] | log2 fold change [7] | log2 fold change [8] | log2 fold change [9] | log2 fold change [10] | log2 fold change [11] | log2 fold change [12] | log2 fold change [13] | log2 fold change [14] | log2 fold change [15] | log2 fold change [16] | log2 fold change [17] | log2 fold change [18] | log2 fold change [19] | log2 fold change [20]
CDV3 (UniProt Q9UKY7) | inactive: 0.004 | inactive: 0.019 | inactive: -0.003 | inactive: 0.028 | inactive: 0.026 | inactive: -0.022 | inactive: -0.008 | inactive: -0.013 | inactive: 0.037 | inactive: 0.018 | inactive: -0.032 | inactive: -0.006 | inactive: 0.038 | inactive: -0.01 | inactive: 0.014 | inactive: 0.029 | inactive: 0.011 | inactive: -0.04 | inactive: 0.011 | inactive: -0.038
CDK5RAP1 (UniProt Q96SZ6) | inactive: 0.019 | inactive: -0.023 | inactive: -0.06 | inactive: 0.018 | inactive: -0.024 | inactive: -0.057 | inactive: 0.029 | inactive: -0.003 | – | inactive: -0.007 | – | inactive: 0.184 | inactive: -0.027 | inactive: 0.051 | inactive: -0.044 | inactive: 0.071 | inactive: 0.015 | inactive: 0 | inactive: 0.018 | inactive: -0.009
CDCA2 (UniProt Q69YH5) | inactive: -0.006 | inactive: 0.052 | inactive: 0.025 | inactive: -0.012 | inactive: 0.135 | inactive: 0.075 | inactive: 0.052 | inactive: -0.041 | inactive: 0.179 | inactive: 0.096 | inactive: -0.008 | inactive: -0.001 | inactive: 0.002 | inactive: 0.014 | inactive: -0.01 | inactive: 0.017 | inactive: 0.097 | inactive: -0.014 | inactive: -0.073 | inactive: -0.027
CEP290 (UniProt O15078) | inactive: -0.001 | inactive: -0.077 | inactive: -0.008 | inactive: 0.098 | inactive: 0.103 | inactive: 0.076 | inactive: -0.109 | inactive: -0.009 | inactive: 0.017 | inactive: 0.018 | inactive: -0.01 | inactive: -0.046 | inactive: -0.072 | inactive: -0.041 | inactive: 0.066 | inactive: -0.054 | inactive: 0.098 | inactive: 0.079 | inactive: 0.001 | inactive: 0.03
CDC25C (UniProt P30307) | inactive: 0.022 | inactive: -0.09 | inactive: 0.041 | inactive: 0.067 | inactive: -0.073 | inactive: 0.078 | inactive: 0.14 | inactive: 0.054 | inactive: 0.04 | inactive: -0.069 | inactive: -0.118 | inactive: -0.025 | – | inactive: -0.049 | inactive: -0.021 | inactive: -0.109 | inactive: 0.03 | inactive: -0.003 | inactive: 0.038 | inactive: 0.013
CELF2 isoform 3 (UniProt O95319) | inactive: 0.067 | inactive: -0.025 | inactive: 0.019 | inactive: 0.018 | inactive: -0.02 | inactive: 0.108 | inactive: -0.031 | inactive: 0.037 | inactive: -0.079 | inactive: -0.061 | inactive: 0.039 | inactive: 0.032 | inactive: 0.072 | inactive: 0.104 | inactive: -0.001 | inactive: -0.052 | inactive: 0.017 | active: -0.579 | inactive: -0.042 | inactive: -0.124
CDK13 (UniProt Q14004) | active: 0.287 | inactive: -0.1 | inactive: -0.044 | inactive: 0.139 | inactive: -0.184 | inactive: -0.005 | inactive: -0.033 | inactive: 0.043 | inactive: 0.078 | inactive: 0.007 | inactive: -0.077 | inactive: 0.108 | inactive: 0.08 | inactive: 0.025 | inactive: -0.006 | inactive: -0.1 | inactive: 0.027 | inactive: 0.002 | inactive: 0.101 | inactive: -0.046
CDC42EP4 (UniProt Q9H3Q1) | inactive: -0.086 | inactive: -0.013 | inactive: 0.041 | inactive: 0.033 | inactive: 0.113 | inactive: 0.079 | inactive: -0.054 | inactive: -0.085 | inactive: -0.017 | inactive: 0.006 | inactive: 0.031 | inactive: 0.029 | inactive: -0.017 | inactive: -0.047 | inactive: -0.029 | active: 0.223 | inactive: -0.017 | inactive: 0.157 | inactive: -0.027 | inactive: 0.102
CEBPZOS (UniProt A8MTT3) | inactive: -0.063 | inactive: -0.124 | inactive: 0.015 | inactive: 0.075 | inactive: -0.055 | inactive: 0.064 | inactive: 0.046 | inactive: -0.064 | inactive: -0.099 | inactive: 0.006 | inactive: -0.001 | – | inactive: -0.025 | inactive: -0.352 | inactive: 0.035 | inactive: -0.044 | inactive: 0.039 | inactive: 0.177 | – | active: 0.203
CDAN1 (UniProt Q8IWY9) | inactive: -0.034 | inactive: -0.051 | inactive: 0.049 | inactive: 0.039 | inactive: 0.017 | inactive: -0.018 | inactive: 0.093 | inactive: 0.02 | inactive: -0.022 | inactive: -0.012 | inactive: 0.009 | inactive: -0.05 | inactive: -0.038 | inactive: 0 | inactive: 0.026 | inactive: -0.073 | inactive: 0.068 | inactive: -0.021 | inactive: -0.056 | inactive: 0.051
CDK11B (UniProt P21127) | active: 0.273 | inactive: -0.081 | inactive: 0.012 | inactive: -0.013 | inactive: 0.019 | inactive: -0.012 | inactive: 0.108 | inactive: 0.012 | inactive: -0.036 | inactive: -0.016 | inactive: -0.017 | inactive: -0.006 | active: 0.461 | inactive: -0.012 | inactive: 0 | active: 0.399 | inactive: 0.02 | inactive: 0.031 | inactive: -0.042 | inactive: 0.007
CEP44 (UniProt Q9C0F1) | inactive: 0.045 | inactive: -0.057 | inactive: 0.019 | inactive: 0.081 | inactive: -0.03 | inactive: 0.007 | inactive: -0.059 | inactive: -0.02 | inactive: 0.033 | inactive: 0.03 | inactive: 0.029 | inactive: -0.007 | inactive: 0.027 | inactive: 0.054 | inactive: -0.004 | inactive: -0.064 | inactive: -0.02 | inactive: 0 | inactive: -0.002 | inactive: -0.066
CDSN (UniProt Q15517) | inactive: 0.039 | inactive: 0.227 | inactive: -0.029 | inactive: 0.12 | inactive: 0.017 | inactive: -0.004 | inactive: -0.186 | inactive: -0.253 | inactive: 0.081 | inactive: 0.863 | inactive: -0.006 | inactive: 0.159 | inactive: 0.094 | inactive: 0.29 | inactive: -0.136 | inactive: -0.287 | inactive: 0.62 | inactive: -0.119 | inactive: 0.256 | inactive: -0.071
CDK9 isoform 2 (UniProt P50750) | active: 0.578 | inactive: -0.042 | inactive: 0.024 | active: 0.392 | inactive: 0.016 | inactive: -0.008 | inactive: -0.033 | inactive: -0.003 | inactive: 0.191 | inactive: 0.008 | inactive: -0.103 | inactive: 0.034 | inactive: 0.067 | inactive: 0.066 | inactive: -0.026 | inactive: 0.074 | inactive: -0.108 | inactive: -0.02 | inactive: -0.125 | inactive: -0.056
CDK6 (UniProt Q00534) | inactive: 0.086 | inactive: 0.003 | inactive: -0.018 | inactive: -0.008 | inactive: -0.013 | inactive: 0.009 | inactive: 0.025 | inactive: -0.004 | inactive: -0.014 | inactive: -0.012 | inactive: -0.015 | inactive: -0.007 | inactive: 0.019 | inactive: 0.004 | inactive: -0.008 | inactive: -0.064 | inactive: -0.002 | inactive: -0.01 | inactive: 0.005 | inactive: -0.035
CGGBP1 (UniProt Q9UFW8) | inactive: -0.009 | inactive: 0.029 | inactive: 0.042 | inactive: 0.002 | inactive: 0.05 | inactive: 0.006 | inactive: 0.035 | inactive: 0.059 | inactive: -0.015 | inactive: 0.026 | inactive: -0.017 | inactive: 0.074 | inactive: 0.011 | inactive: -0.061 | inactive: -0.032 | inactive: 0.033 | inactive: 0.048 | inactive: 0.057 | inactive: 0.066 | inactive: 0.013

Part of the list above, in CSV form:
Target,log2 fold change [1],log2 fold change [2],log2 fold change [3],log2 fold change [4],log2 fold change [5],log2 fold change [6],log2 fold change [7],log2 fold change [8],log2 fold change [9],log2 fold change [10],log2 fold change [11],log2 fold change [12],log2 fold change [13],log2 fold change [14],log2 fold change [15],log2 fold change [16],log2 fold change [17],log2 fold change [18],log2 fold change [19],log2 fold change [20]
CEBPZOS (UniProt A8MTT3),inactive: -0.063,inactive: -0.124,inactive: 0.015,inactive: 0.075,inactive: -0.055,inactive: 0.064,inactive: 0.046,inactive: -0.064,inactive: -0.099,inactive: 0.006,inactive: -0.001,–,inactive: -0.025,inactive: -0.352,inactive: 0.035,inactive: -0.044,inactive: 0.039,inactive: 0.177,–,active: 0.203
CDK11B (UniProt P21127),active: 0.273,inactive: -0.081,inactive: 0.012,inactive: -0.013,inactive: 0.019,inactive: -0.012,inactive: 0.108,inactive: 0.012,inactive: -0.036,inactive: -0.016,inactive: -0.017,inactive: -0.006,active: 0.461,inactive: -0.012,inactive: 0,active: 0.399,inactive: 0.02,inactive: 0.031,inactive: -0.042,inactive: 0.007
